Laboratory results: publication PMC6292963

T1: starch synthase IIa (rice, japonica (endogenous in developing seeds)) (UniProt Q0DDE3)
T1 sequence: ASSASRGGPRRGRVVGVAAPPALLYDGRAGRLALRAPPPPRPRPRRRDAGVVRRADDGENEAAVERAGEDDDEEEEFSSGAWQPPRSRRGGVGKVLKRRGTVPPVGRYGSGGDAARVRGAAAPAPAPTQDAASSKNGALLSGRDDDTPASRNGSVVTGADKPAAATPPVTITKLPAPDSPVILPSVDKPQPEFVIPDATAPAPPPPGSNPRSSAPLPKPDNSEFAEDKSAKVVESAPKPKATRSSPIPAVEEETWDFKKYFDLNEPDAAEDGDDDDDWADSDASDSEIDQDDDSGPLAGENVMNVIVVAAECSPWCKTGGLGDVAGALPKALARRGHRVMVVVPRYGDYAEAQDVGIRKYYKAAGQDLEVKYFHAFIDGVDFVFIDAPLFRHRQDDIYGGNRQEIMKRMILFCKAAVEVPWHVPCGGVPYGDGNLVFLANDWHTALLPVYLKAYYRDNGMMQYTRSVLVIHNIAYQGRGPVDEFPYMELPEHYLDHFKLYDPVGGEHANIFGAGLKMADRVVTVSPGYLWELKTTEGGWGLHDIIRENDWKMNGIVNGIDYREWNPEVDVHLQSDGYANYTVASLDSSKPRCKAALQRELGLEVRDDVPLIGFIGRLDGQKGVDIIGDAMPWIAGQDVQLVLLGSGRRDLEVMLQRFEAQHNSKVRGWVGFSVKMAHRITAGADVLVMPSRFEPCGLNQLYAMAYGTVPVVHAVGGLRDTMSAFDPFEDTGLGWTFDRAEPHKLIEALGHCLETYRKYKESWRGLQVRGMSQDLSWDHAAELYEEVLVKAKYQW

T2: starch branching enzyme I (rice, japonica (endogenous in developing seeds)) (UniProt Q01401)
T2 sequence: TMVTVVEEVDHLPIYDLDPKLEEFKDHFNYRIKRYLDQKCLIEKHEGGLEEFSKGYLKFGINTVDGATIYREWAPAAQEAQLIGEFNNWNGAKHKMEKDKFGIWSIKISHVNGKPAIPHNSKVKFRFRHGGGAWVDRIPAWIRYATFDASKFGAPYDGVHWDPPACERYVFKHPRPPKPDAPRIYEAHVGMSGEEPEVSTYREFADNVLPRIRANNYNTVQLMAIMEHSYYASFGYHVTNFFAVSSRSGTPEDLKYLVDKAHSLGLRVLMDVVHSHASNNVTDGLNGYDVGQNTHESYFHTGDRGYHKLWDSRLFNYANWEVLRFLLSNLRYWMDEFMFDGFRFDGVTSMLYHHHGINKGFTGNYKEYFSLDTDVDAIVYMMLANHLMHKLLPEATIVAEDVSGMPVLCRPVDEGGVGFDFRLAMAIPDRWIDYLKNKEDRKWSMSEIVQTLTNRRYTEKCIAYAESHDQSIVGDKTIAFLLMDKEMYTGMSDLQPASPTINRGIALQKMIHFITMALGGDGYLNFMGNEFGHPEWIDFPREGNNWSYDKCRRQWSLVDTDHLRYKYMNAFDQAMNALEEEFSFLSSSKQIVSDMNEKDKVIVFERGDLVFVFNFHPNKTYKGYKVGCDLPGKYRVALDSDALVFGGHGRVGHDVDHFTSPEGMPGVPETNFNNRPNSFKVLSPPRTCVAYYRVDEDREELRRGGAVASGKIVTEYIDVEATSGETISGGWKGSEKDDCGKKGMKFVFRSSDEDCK

T3: starch synthase I (rice, japonica (endogenous in developing seeds)) (UniProt Q0DEC8)
T3 sequence: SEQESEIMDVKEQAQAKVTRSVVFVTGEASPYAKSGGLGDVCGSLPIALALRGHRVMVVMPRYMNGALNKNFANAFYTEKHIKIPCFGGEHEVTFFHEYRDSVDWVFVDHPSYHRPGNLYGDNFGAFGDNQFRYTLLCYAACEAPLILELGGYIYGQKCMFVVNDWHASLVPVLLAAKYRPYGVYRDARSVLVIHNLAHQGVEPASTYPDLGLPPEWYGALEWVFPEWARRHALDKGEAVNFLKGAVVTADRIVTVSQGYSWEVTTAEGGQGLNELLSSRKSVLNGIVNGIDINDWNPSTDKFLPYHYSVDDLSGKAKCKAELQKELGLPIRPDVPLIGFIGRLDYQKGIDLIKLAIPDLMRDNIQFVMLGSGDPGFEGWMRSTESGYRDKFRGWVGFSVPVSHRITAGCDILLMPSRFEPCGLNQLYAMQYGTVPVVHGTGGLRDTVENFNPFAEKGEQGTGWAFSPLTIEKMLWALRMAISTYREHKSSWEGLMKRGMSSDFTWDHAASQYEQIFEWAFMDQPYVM


Tests used:
Assay in all cases: co-IP; soluble proteins from developing rice seeds (wild types Nip, Kin, Akt; mutant lines ss1, EM10 and #1411) extracted in 10 mM Hepes-KOH pH 7.5, 100 mM NaCl, protease inhibitor; incubated with isozyme-specific antibodies and protein A sepharose; extensive washing; captured proteins detected by western blotting; control with pre-immune sera
[1] = target: T1, starch synthase IIa (rice, japonica (endogenous in developing seeds))
[2] = target: T2, starch branching enzyme I (rice, japonica (endogenous in developing seeds))
[3] = target: T3, starch synthase I (rice, japonica (endogenous in developing seeds))
[4] = target: starch branching enzyme IIb (rice, japonica (endogenous in developing seeds))
[5] = target: starch branching enzyme IIa (rice, japonica (endogenous in developing seeds))
[6] = target: inactive BEIIb protein that harbors Gly645Arg substitution (rice, japonica (endogenous in developing seeds))

Row | Molecule | binding [1] | binding [2] | binding [3] | binding [4] | binding [5] | binding [6]
1 | inactive BEIIb protein that harbors Gly645Arg substitution (enzyme) | binds | binds | binds | – | – | –
2 | starch branching enzyme IIb | binds | binds | binds | – | – | –
3 | starch branching enzyme I (enzyme, UniProt Q01401 65-820) TMVTVVEEVDHLPIYDLDPKLEEFKDHFNYRIKRYLDQKCLIEKHEGGLEEFSKGYLKFGINTVDGATIYREWAPAAQEAQLIGEFNNWNGAKHKMEKDKFGIWSIKISHVNGKPAIPHNSKVKFRFRHGGGAWVDRIPAWIRYATFDASKFGAPYDGVHWDPPACERYVFKHPRPPKPDAPRIYEAHVGMSGEEPEVSTYREFADNVLPRIRANNYNTVQLMAIMEHSYYASFGYHVTNFFAVSSRSGTPEDLKYLVDKAHSLGLRVLMDVVHSHASNNVTDGLNGYDVGQNTHESYFHTGDRGYHKLWDSRLFNYANWEVLRFLLSNLRYWMDEFMFDGFRFDGVTSMLYHHHGINKGFTGNYKEYFSLDTDVDAIVYMMLANHLMHKLLPEATIVAEDVSGMPVLCRPVDEGGVGFDFRLAMAIPDRWIDYLKNKEDRKWSMSEIVQTLTNRRYTEKCIAYAESHDQSIVGDKTIAFLLMDKEMYTGMSDLQPASPTINRGIALQKMIHFITMALGGDGYLNFMGNEFGHPEWIDFPREGNNWSYDKCRRQWSLVDTDHLRYKYMNAFDQAMNALEEEFSFLSSSKQIVSDMNEKDKVIVFERGDLVFVFNFHPNKTYKGYKVGCDLPGKYRVALDSDALVFGGHGRVGHDVDHFTSPEGMPGVPETNFNNRPNSFKVLSPPRTCVAYYRVDEDREELRRGGAVASGKIVTEYIDVEATSGETISGGWKGSEKDDCGKKGMKFVFRSSDEDCK | – | – | – | binds | binds | binds

Results, then the molecule that gave them:

Row | binding [1] | binding [2] | binding [3] | binding [4] | binding [5] | binding [6] | Molecule
4 | – | – | – | binds | binds | binds | starch synthase IIa (enzyme, UniProt Q0DDE3 17-810) ASSASRGGPRRGRVVGVAAPPALLYDGRAGRLALRAPPPPRPRPRRRDAGVVRRADDGENEAAVERAGEDDDEEEEFSSGAWQPPRSRRGGVGKVLKRRGTVPPVGRYGSGGDAARVRGAAAPAPAPTQDAASSKNGALLSGRDDDTPASRNGSVVTGADKPAAATPPVTITKLPAPDSPVILPSVDKPQPEFVIPDATAPAPPPPGSNPRSSAPLPKPDNSEFAEDKSAKVVESAPKPKATRSSPIPAVEEETWDFKKYFDLNEPDAAEDGDDDDDWADSDASDSEIDQDDDSGPLAGENVMNVIVVAAECSPWCKTGGLGDVAGALPKALARRGHRVMVVVPRYGDYAEAQDVGIRKYYKAAGQDLEVKYFHAFIDGVDFVFIDAPLFRHRQDDIYGGNRQEIMKRMILFCKAAVEVPWHVPCGGVPYGDGNLVFLANDWHTALLPVYLKAYYRDNGMMQYTRSVLVIHNIAYQGRGPVDEFPYMELPEHYLDHFKLYDPVGGEHANIFGAGLKMADRVVTVSPGYLWELKTTEGGWGLHDIIRENDWKMNGIVNGIDYREWNPEVDVHLQSDGYANYTVASLDSSKPRCKAALQRELGLEVRDDVPLIGFIGRLDGQKGVDIIGDAMPWIAGQDVQLVLLGSGRRDLEVMLQRFEAQHNSKVRGWVGFSVKMAHRITAGADVLVMPSRFEPCGLNQLYAMAYGTVPVVHAVGGLRDTMSAFDPFEDTGLGWTFDRAEPHKLIEALGHCLETYRKYKESWRGLQVRGMSQDLSWDHAAELYEEVLVKAKYQW
5 | – | – | – | binds | – | binds | starch synthase I (enzyme, UniProt Q0DEC8 114-641) SEQESEIMDVKEQAQAKVTRSVVFVTGEASPYAKSGGLGDVCGSLPIALALRGHRVMVVMPRYMNGALNKNFANAFYTEKHIKIPCFGGEHEVTFFHEYRDSVDWVFVDHPSYHRPGNLYGDNFGAFGDNQFRYTLLCYAACEAPLILELGGYIYGQKCMFVVNDWHASLVPVLLAAKYRPYGVYRDARSVLVIHNLAHQGVEPASTYPDLGLPPEWYGALEWVFPEWARRHALDKGEAVNFLKGAVVTADRIVTVSQGYSWEVTTAEGGQGLNELLSSRKSVLNGIVNGIDINDWNPSTDKFLPYHYSVDDLSGKAKCKAELQKELGLPIRPDVPLIGFIGRLDYQKGIDLIKLAIPDLMRDNIQFVMLGSGDPGFEGWMRSTESGYRDKFRGWVGFSVPVSHRITAGCDILLMPSRFEPCGLNQLYAMQYGTVPVVHGTGGLRDTVENFNPFAEKGEQGTGWAFSPLTIEKMLWALRMAISTYREHKSSWEGLMKRGMSSDFTWDHAASQYEQIFEWAFMDQPYVM

No constants are given. Whether binding was seen depends on the method and setting. Binding seen in cells or lysates may run through a third protein. A result given as binding can be weak or reduced; the word gives no strength.
